Measurements reported in patent publication US10308926B2, “Stablized EZH2 peptides” (DANA-FARBER CANCER INSTITUTE, INC., priority 2013, dated 2019).
Entries after “also recorded” stand apart in the source; their conditions may differ. Not every detail of the peptide structures is certain; ends, links or a residue may be inferred. Where a SMILES comes first, the peptide text is derived from it. Bridges are numbered along the chain shown (N, C = ends). [ ]: non-standard residue; d: D form. S5 = C=CCCC[C@](C)(N)C(=O)O

Sequences of proteins named here, by UniProt entry; tags and fusion partners are left off.
UniProt O75530, whole entry: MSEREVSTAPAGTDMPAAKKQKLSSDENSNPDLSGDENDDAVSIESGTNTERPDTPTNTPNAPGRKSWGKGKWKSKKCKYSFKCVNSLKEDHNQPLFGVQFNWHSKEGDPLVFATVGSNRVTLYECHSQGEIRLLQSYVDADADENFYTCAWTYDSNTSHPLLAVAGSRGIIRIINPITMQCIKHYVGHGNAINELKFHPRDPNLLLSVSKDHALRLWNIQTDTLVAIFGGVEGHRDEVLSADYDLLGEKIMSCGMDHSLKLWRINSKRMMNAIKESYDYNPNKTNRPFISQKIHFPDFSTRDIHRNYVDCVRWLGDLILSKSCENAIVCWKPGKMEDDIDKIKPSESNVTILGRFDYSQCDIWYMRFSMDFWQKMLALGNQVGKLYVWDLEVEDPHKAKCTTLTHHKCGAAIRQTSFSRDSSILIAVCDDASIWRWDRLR

Tests used:
[1] = test system: CD133; test: CD133 expression in MLL-AF9 cells; format: cell-based, mouse; conditions: MLL-AF9, 8 days of treatment
[2] = test system: M1 myeloid leukemia cells; test: M1 cell proliferation; format: cell-based, mouse
[3] = test system: EZH2 protein; test: EZH2 protein levels in treated MLL-AF9 cells; format: cell-based, mouse
[4] = biological target: T1, HA-EED (Homo sapiens, UniProt O75530); test: Anti-FITC pull down of HA-EED by FITC-SAH-EZH2 peptides; format: binding; conditions: HA-EED 40 nM
T1 construct: made in house; host or cells: Sf21 insect cells
Experimental: [formula] y: Fluorescence polarization, X: Receptor concentration, L: Ligand concentration AF: Minimum value of y, AB: Maximum value of y For anti-FITC pull down-based binding assays, HA-EED was produced in Sf21 cells as described in Shen et al.^29,46. FITC-SAH-EZH2 peptides (final concentration, 50, 10, and 2 nM) were mixed with 2 μl, 0.5 μl and 0.2 μl of anti-FITC antibody (Abcam, 1 mg/ml) respectively, and incubated with 30 μl of protein G agarose (Roche) in 400 μl binding buffer (pH 8.0, 20 mM Tris-HCl, 150 mM NaCl, 0.3% NP40, 10% glycerol). After successive washes, HA-EED (final concentration of 40 nM each tube) was added and incubated for 3 h, followed by detection of HA-EED bound to FITC-SAH-EZH2 peptides by anti-HA (Santa Cruz Biotechnology) western analysis. Detection of FITC-SAH-EZH2 peptides was accomplished by fluorescence scan (GE Healthcare Life Sciences, Typhoon 9200).

[5] = test system: F4/80; test: Macrophage-specific surface marker F4/80 flow cytometry; format: cell-based, mouse; conditions: MLL-AF9
[6] = test system: MLL-AF9 leukemia cells; test: Morphology / differentiation of treated MLL-AF9 cells; format: cell-based, mouse
[7] = test system: p19ARF; test: p19ARF expression by western analysis; format: cell-based, mouse; conditions: 10 μM twice daily, 7 days, MLL-AF9 cells
[8] = biological target: T2, HA-EED/EZH1 complex (Homo sapiens, UniProt O75530); test: Dissociation of purified EZH1/EED complex, anti-HA pull-down; format: biochemical; conditions: complex 40 nM; peptide 10, 3 and 1 μM
T2 construct: made in house; host or cells: Sf21 insect cells (baculovirus), purified on anti-FLAG agarose

[9] = test system: MLL-AF9 leukemia cells; test: MLL-AF9 cell proliferation, cell counts; format: cell-based, mouse; conditions: 10 μM twice daily
[10] = test system: MLL-AF9 leukemia cells; test: Colony-forming assay on methylcellulose; format: cell-based, mouse; conditions: 14 days exposure, then day 7 after plating, 20 μM
[11] = test system: HPC5 cells; test: HPC5 cell morphology; format: cell-based
[12] = test system: B cell lymphoma cells bearing activating mutations Y641N or A677G; test: Viability of mutant EZH2-driven B cell lymphoma cells; format: cell-based
[13] = biological target: T3, HA-EED/EZH2 complex (Homo sapiens, UniProt O75530); test: Dissociation of purified EZH2/EED complex, anti-HA pull-down; format: biochemical; conditions: complex 40 nM; peptide 10, 3 and 1 μM
T3 construct: made in house; host or cells: Sf21 insect cells (baculovirus), purified on anti-FLAG agarose

[14] = test system: DU145 prostate cancer cells; test: Viability of DU145 prostate cancer cells; format: cell-based; conditions: SAH-EZH2 vs GSK126 (FIG. 34B)
Description: (§1) To compare the functional and mechanism-based cellular activities of SAH-EZH2 and GSK126, a small molecule inhibitor of EZH2 enzymatic activity (McCabe et al. Nature, 492: 108-112, 2012), we conducted viability assays on the EZH2-dependent cell line MLL-AF9 and the EZH2-independent (non-leukemic) cell line 32D. […] We next compared the effects of SAH-EZH2 and GSK126 on lineage specific surface marker expression in MLL-AF9 cells. […] Given the distinct mechanisms of action of SAH-EZH2 and GSK126, we explored whether co-administration of the two compounds would enhance the anti-leukemic effects. […]
(§2) To test the anti-proliferative effect of SAH-EZH2(42-68)AC, breast (MDA-MB231) and prostate (DU145) cancer cell lines were treated with SAH-EZH2(42-68)AC at the indicated doses for 8 days and measured for viability by Cell Titer Glo®SAH-EZH2(42-68)AC was added to the culture medium once every other day. […] The cells were treated with SAH-EZH2(42-68)AC at the indicated doses for 6 days on an every other day schedule and then measured for viability using Cell Titer Glo®. […] To test the anti-proliferative effect on chronic myelogenous leukemia, SAH-EZH2(42-68)AC was added to K562 cells at 10 μM every other day and viability was measured at days 2, 4, 6, and 10 using Cell Titer Glo®. […]

[15] = test system: MDA-MB231 breast cancer cells; test: Viability of MDA-MB231 breast cancer cells; format: cell-based; conditions: SAH-EZH2 vs GSK126 (FIG. 34B)
Description: as §1, §2

[16] = test system: Ace1, Adam8 and Fcer1a; test: Real time qPCR of macrophage/monocyte lineage-specific markers in MLL-AF9 cells; format: cell-based, mouse; conditions: MLL-AF9, 8 days
[17] = test system: H3K27Me3; test: H3K27 trimethylation in Karpas422 lymphoma cells; format: cell-based; conditions: Karpas422, 8 days of treatment
[18] = test system: lymphoma cell bearing wild-type EZH2; test: Viability of EZH2-independent lymphoma cell; format: cell-based
[19] = test system: H3K4, H3K9 and H3K36 methyl marks; test: Trimethylation mark selectivity western in MLL-AF9 cells; format: cell-based, mouse; conditions: 10 μM twice daily for 7 days
[20] = test system: H3K27Me3; test: H3K27 trimethylation in MLL-AF9 cells, western and flow cytometry; format: cell-based, mouse; conditions: for Trimethylation of H3K27: 10 μM twice daily for 7 days
[21] = test system: 32D; test: Viability assay on EZH2-independent cell line 32D; format: cell-based; conditions: EZH2-independent (non-leukemic)
Description: (§3) To compare the functional and mechanism-based cellular activities of SAH-EZH2 and GSK126, a small molecule inhibitor of EZH2 enzymatic activity (McCabe et al. Nature, 492: 108-112, 2012), we conducted viability assays on the EZH2-dependent cell line MLL-AF9 and the EZH2-independent (non-leukemic) cell line 32D. […] We next compared the effects of SAH-EZH2 and GSK126 on lineage specific surface marker expression in MLL-AF9 cells. […] Given the distinct mechanisms of action of SAH-EZH2 and GSK126, we explored whether co-administration of the two compounds would enhance the anti-leukemic effects. […] Thus, SAH-EZH2 manifests a unique mechanism of action by targeting EED, dissociating the EZH2/EED complex, and thereby reduces EZH2 protein levels. As a result, the H3K27Me3 mark is reduced over time and PRC2 transcriptional effects are inhibited, leading to anti-proliferative and induced-differentiation effects on EZH2-dependent leukemia cells.

[22] = test system: MLL-AF9 leukemia cells; test: Cell cycle analysis by propidium iodide flow cytometry; format: cell-based, mouse; conditions: for Cells in G2/M phase / Cells in S phase: day 8, 10 μM twice daily
[23] = test system: HPC5 cells; test: HPC5 cell proliferation; format: cell-based; conditions: non-tumorigenic
[24] = test system: C1498 myeloid leukemia cells; test: C1498 cell proliferation; format: cell-based, mouse
[25] = test system: MLL-AF9; test: Viability assay on EZH2-dependent cell line MLL-AF9; format: cell-based, mouse
Description: as §3

Row | Structure (SMILES) | Proliferation of M1 cells [2] | Engagement of HA-EED by anti-FITC pull down [4] | Morphology of treated cells [6] | p19ARF levels [7] | Dissociation of EZH1/EED complex [8] | Proliferation of MLL-AF9 cells [9] | Decrease of colony-forming capacity compared to vehicle control [10] | Undifferentiated appearance of HPC5 cells [11] | Dissociation of EZH2/EED complex [13] | Trimethylation of H3K27 [20] | Cells in G2/M phase [22] | Cells in S phase [22] | Proliferation of C1498 cells [24] | other results
1 | CC[C@H](C)[C@H](NC(=O)[C@H](CCC(N)=O)NC(=O)[C@@H](NC(=O)[C@H](CCCNC(=N)N)NC(=O)[C@]1(C)CCCC=CCCC[C@](C)(NC(=O)[C@H](CCCNC(=N)N)NC(=O)[C@H](CC(N)=O)NC(=O)[C@H](CO)NC(=O)[C@H](CO)NC(=O)[C@H](Cc2ccccc2)NC(C)=O)C(=O)N[C@@H](CCCCN)C(=O)N[C@@H]([C@@H](C)CC)C(=O)N[C@@H](CC(C)C)C(=O)N1)[C@@H](C)O)C(=O)N[C@@H](CC(C)C)C(=O)N[C@@H](CC(N)=O)C(=O)N[C@@H](CCC(N)=O)C(=O)N[C@@H](CCC(=O)O)C(=O)N[C@@H](Cc1c[nH]c2ccccc12)C(=O)N[C@@H](CCCCN)C(=O)N[C@@H](CCC(N)=O)C(=O)N[C@@H](CCCNC(=N)N)C(=O)N[C@@H](CCCNC(=N)N)C(=O)N[C@H](C(=O)N[C@@H](CCC(N)=O)C(=O)N1CCC[C@H]1C(=O)N[C@H](C(N)=O)C(C)C)[C@@H](C)CC [SAH-EZH2, FSSNRXKILXRTQILNQEWKQRRIQPV (SEQ ID NO: 27)] (Ac-FSSNR[S5]KIL[S5]RTQILNQEWKQRRIQPV-NH2; staple 6-10; N-terminus and C-terminus assumed) | inhibited the proliferation | without compromising in vitro binding activity | triggered myeloid cell maturation | increased p19ARF levels | dose-responsive dissociation of the protein interactions | significantly slowed growth by eight days | 70% | unaffected | dose-responsive dissociation of the protein interactions | decreased trimethylation of H3K27 | 10.20% | 33.94% | inhibited the proliferation | Expression of CD133 [1]: decreased significantly; also recorded: comparatively more robust suppressive effect; EZH2 protein levels [3]: dose-responsive reduction in EZH2 protein levels; Staining with macrophage specific antibody F4/80 [5]: positive staining; Viability of mutant EZH2-driven B cell lymphoma cells [12]: selective impact on the viability; Viability of DU145 cells [14]: dose-responsive effect; Viability of MDA-MB231 cells [15]: dose-responsive effect; Expression of macrophage lineage-specific markers [16]: Induced expression; also recorded: increasing the expression levels of Adam8, Fcerla, and ACE; Inhibition of H3K27 methylation, dose response [17]: dose-responsive; Viability of lymphoma cell bearing wild-type EZH2 [18]: not an EZH2-independent lymphoma cell bearing wild-type EZH2; Effect on H3K4, H3K9 and H3K36 methyl marks [19]: lack of a SAH-EZH2 effect; Inhibition of H3K27 methylation, dose response ([20]; MLL-AF9, 8 days of treatment): dose-responsive; Viability of 32D cells [21]: specific for the EZH2-dependent cell line; Cell cycle effects ([22]; day 4 of treatment): no cell cycle effects at day 4; Proliferation of HPC5 cells [23]: showed no effect; Viability of MLL-AF9 cells [25]: specific for the EZH2-dependent cell line
2 | CC[C@H](C)[C@H](NC(=O)[C@H](CCC(N)=O)NC(=O)[C@@H](NC(=O)[C@H](CCCNC(=N)N)NC(=O)[C@]1(C)CCCC=CCCC[C@](C)(NC(=O)[C@H](CCCNC(=N)N)NC(=O)[C@H](CC(N)=O)NC(=O)[C@H](CO)NC(=O)[C@H](CO)NC(=O)[C@H](Cc2ccccc2)NC(C)=O)C(=O)N[C@@H](CCCCN)C(=O)N[C@@H]([C@@H](C)CC)C(=O)N[C@@H](CC(C)C)C(=O)N1)[C@@H](C)O)C(=O)N[C@@H](CC(C)C)C(=O)N[C@@H](CC(N)=O)C(=O)N[C@@H](CCC(N)=O)C(=O)N[C@@H](CCC(N)=O)C(=O)N[C@@H](Cc1c[nH]c2ccccc12)C(=O)N[C@@H](CCCCN)C(=O)N[C@@H](CCC(N)=O)C(=O)N[C@@H](CCCNC(=N)N)C(=O)N[C@@H](CCCNC(=N)N)C(=O)N[C@H](C(=O)N[C@@H](CCC(N)=O)C(=O)N1CCC[C@H]1C(=O)N[C@H](C(N)=O)C(C)C)[C@@H](C)CC [SAH-EZH2MUT, FSSNRXKILXRTQILNQQWKQRRIQPV (SEQ ID NO: 28)] (Ac-FSSNR[S5]KIL[S5]RTQILNQQWKQRRIQPV-NH2; staple 6-10; N-terminus and C-terminus assumed) | not its mutant derivative | markedly reduced in vitro EED binding activity | retained the morphology of immature leukemic blasts | little to no p19ARF expression | not for the mutant control | but not mutant control-exposed cells | no effect | unaffected | not for the mutant control | inactivity | 20.26% | 25.02% | not its mutant derivative | –
